Assay results from patent publication US20030059461A1.
No constants are given. Whether binding was seen depends on the method and setting. Some binding calls cover weakened binding; strength is not graded here.

Protein sequences, listed by entry. Tags and fused reporters are not part of them. Residues count along the entry.
UniProt P61823, residues 47-150: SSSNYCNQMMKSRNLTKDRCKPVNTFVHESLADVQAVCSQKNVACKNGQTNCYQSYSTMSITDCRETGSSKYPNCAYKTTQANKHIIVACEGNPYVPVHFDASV

What was measured:
[1] = target: FVEGF121 fusion protein (bovine; human) (UniProt P15692); assay: reconstituted ribonuclease activity, S-tag Rapid Assay Kit
[2] = target: FVEGF121 fusion protein (bovine; human) (UniProt P15692); assay: reconstituted ribonuclease activity, S-tag assay

binding [1]: binds | binding [2]: binds
Substance: Lip(Dox)-SP (doxorubicin-loaded liposome carrying S-protein) (from UniProt P61823 47-150)
